US5763408A, “Amino acid derivatives and application thereof” (Fuji Photo Film Co., Ltd., priority 1992, dated 1998)
Part of at least one peptide drawing is inferred or uncertain, most often the ends.

System: PRP (polyplatelet rich plasma)
Test: Platelet aggregation inhibition activity (ADP-induced aggregation in PRP)
Format: cell-based
Conditions: test compound 1 mg/ml in PRP, ADP as inducer, five minutes later
Protocol: Platelet aggregation inhibition activities of Compounds 1, 2, 3, 4, 5, 6, 7 and 15 were examined.
A test compound was added to PRP (polyplatelet rich plasma, 3×10^8 cells/ml) so that the plasma contained the compound at a concentration of 1 mg/ml and the plasma was added with 10 μl of ADP as an aggregation inducing substance. Five minutes later, aggregation ratio was determined by a chronologic whole blood aggregation ability measuring apparatus to calculate platelet aggregation inhibition ratio.

N=C(N)NCCC[C@H](NC(=O)CN)C(=O)NCC(=O)N[C@@H](CC(=O)O)C(=O)N[C@@H](CO)C(=O)O [GRGDS, Gly-Arg-Gly-Asp-Ser, reference compound]
Platelet aggregation inhibition rate (%): 100%

N=C(N)NCCC[C@H](N)C(=O)NCC(=O)N[C@@H](CC(=O)O)C(=O)N[C@@H](CO)C(=O)O [RGDS, Arg-Gly-Asp-Ser, reference compound]
Platelet aggregation inhibition rate (%): 100%
